Results deposited as PubChem BioAssay AID652243 (Drosophila RNAi Screening Center, 2013)
Aim: 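Fly regulators of androgen-dependent reporter output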 (primary screen). System: Drosophila S2R+ cells. Reagent: long dsRNA against Drosophila genes. Timing: 72 h (48 h, then 24 h hormone). Challenge: synthetic androgen R1881 at 10 nM for 24 h. Measurement: 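Firefly light from an androgen-responsive reporter and Renilla control light per well, raw and unnormalised, for each of two replicates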. Scale: firefly reporter light: higher = more light from androgen-responsive reporter; Renilla control light: higher = more constitutive control signal (cell number, transfection). Call rule: 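Hit when the log firefly-to-Renilla ratio dropped or increased by a fixed fold versus the mean of GFP or LacZ controls across duplicate plates; lowering cut given as 1.5 and as 3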. Calls: active = hit: reporter lowered or raised; inactive = no hit.
The deposit covers about 24,000 reagents; shown is an unselected part of those with a known target gene and a result. Of all reagents, 246 (1%) were called active. 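Plates not normalised; calls are printed but the firefly/Renilla ratio behind them is not deposited; fold cut for lowering reported inconsistently.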 The raw values are shown without normalisation. A plus sign joins genes that one reagent is predicted to hit. Not given: the amount of reagent.

predicted target | amplicon | firefly reporter light, replicate 1 | firefly reporter light, replicate 2 | Renilla control light, replicate 1 | Renilla control light, replicate 2 | Outcome
Cht11 | DRSC18270 | 1.94e5 | 2.76e5 | 2.44e6 | 2.63e6 | inactive
Cht11 | DRSC25942 | 4.22e5 | 6.28e5 | 8.22e5 | 7.72e5 | inactive
CG32437 | DRSC11760 | 2.82e5 | 2.69e5 | 3.24e6 | 2.56e6 | inactive
CG32437 | DRSC22020 | 5.55e5 | 5.28e5 | 1.90e6 | 1.84e6 | inactive
CG32437 | DRSC27187 | 3.55e5 | 3.50e5 | 7.57e5 | 6.30e5 | inactive
CG11672 | DRSC14344 | 1.42e5 | 1.15e5 | 3.06e6 | 2.58e6 | inactive
Gr64b + Gr64c | DRSC08444 | 1.77e5 | 1.97e5 | 1.33e6 | 1.70e6 | inactive
Gr64b + Gr64c | DRSC08445 | 1.70e5 | 1.50e5 | 2.36e6 | 2.47e6 | inactive
Gr64b + Gr64c | DRSC27568 | 2.94e5 | 2.93e5 | 9.01e5 | 7.40e5 | inactive
KCNQ | DRSC06121 | 1.88e5 | 1.06e5 | 1.64e6 | 1.05e6 | active
KCNQ | DRSC06230 | 3.05e5 | 1.54e5 | 1.99e6 | 1.63e6 | inactive
KCNQ | DRSC25242 | 3.86e5 | 4.06e5 | 3.19e5 | 3.41e5 | inactive
asp | DRSC16903 | 52225 | 75933 | 4.01e5 | 4.24e5 | inactive
asp | DRSC36592 | – | – | – | – | inactive
asp | DRSC36593 | – | – | – | – | inactive
CG12698 | DRSC19485 | 4.08e5 | 4.61e5 | 3.51e6 | 2.99e6 | inactive
CG12698 | DRSC27291 | 5.22e5 | 5.28e5 | 3.51e5 | 5.35e5 | inactive
Sgs7 | DRSC11281 | 3.90e5 | 3.09e5 | 3.06e6 | 1.96e6 | inactive
Sps1 | DRSC07549 | 1.37e6 | 9.78e5 | 1.87e6 | 1.96e6 | inactive
inaF-B + inaF-D + inaF-C + 1 more | DRSC20342 | 3.69e5 | 3.74e5 | 3.67e6 | 3.82e6 | inactive
inaF-B + inaF-D + inaF-C + 1 more | DRSC28607 | 7.82e5 | 4.05e5 | 1.81e6 | 1.46e6 | inactive
CG12645 | DRSC17851 | 2.60e5 | 3.53e5 | 3.06e6 | 2.74e6 | inactive
CG12645 | DRSC24406 | 8.70e5 | 1.16e6 | 1.18e6 | 9.34e5 | inactive
pim | DRSC03591 | 7.41e5 | 8.46e5 | 1.24e6 | 1.46e6 | inactive
Vm26Ac | DRSC02329 | 86076 | 44647 | 9.06e5 | 7.67e5 | inactive
Vm26Ac | DRSC26887 | 3.70e5 | 3.49e5 | 1.02e6 | 8.64e5 | inactive
Ssl | DRSC04657 | 2.05e5 | 2.46e5 | 1.48e6 | 1.66e6 | inactive
Ssl | DRSC26276 | 4.17e5 | 4.61e5 | 7.12e5 | 8.85e5 | inactive
park + Targ3 | DRSC11617 | 59725 | 86374 | 3.26e5 | 3.76e5 | inactive
Nup43 | DRSC16279 | 76901 | 1.39e5 | 1.08e6 | 1.58e6 | inactive
CG31178 | DRSC14590 | 2.83e5 | 2.94e5 | 3.45e6 | 3.33e6 | inactive
Gss1 + Gss2 | DRSC20008 | 4.45e5 | 3.75e5 | 2.96e6 | 2.70e6 | inactive
Gss1 + Gss2 | DRSC21539 | 7.26e5 | 6.36e5 | 75078 | 67366 | inactive
CG33552 | DRSC37909 | 4.06e5 | 2.56e5 | 1.56e6 | 1.30e6 | inactive
CG14731 | DRSC14952 | 2.39e5 | 2.67e5 | 2.21e6 | 2.63e6 | inactive
CG11122 | DRSC19382 | 1.28e5 | 86937 | 7.07e5 | 7.76e5 | inactive
CG11122 | DRSC27302 | 2.71e5 | 2.51e5 | 7.11e5 | 5.65e5 | inactive
CG5157 | DRSC10488 | 1.62e5 | 1.69e5 | 1.80e6 | 1.58e6 | inactive
CG5157 | DRSC27474 | 8.38e5 | 8.17e5 | 1.23e6 | 9.50e5 | inactive
CG5157 | DRSC39055 | 7.61e5 | 5.93e5 | 2.48e6 | 2.40e6 | inactive
srl | DRSC12340 | 79594 | 1.34e5 | 2.62e6 | 2.41e6 | inactive
srl | DRSC29561 | 2.40e5 | 3.55e5 | 6.67e5 | 6.67e5 | inactive
Drs | DRSC08657 | 1.65e5 | 1.54e5 | 2.83e6 | 3.32e6 | inactive
Drs | DRSC27852 | 9.09e5 | 4.09e5 | 4.26e6 | 1.79e6 | inactive
sqa | DRSC06693 | 7.41e5 | 6.68e5 | 1.37e6 | 1.42e6 | inactive
sqa | DRSC21635 | 8.43e5 | 6.52e5 | 5.28e5 | 6.45e5 | inactive
sqa | DRSC39263 | – | – | – | – | inactive
sqa | DRSC39313 | – | – | – | – | inactive
CG15628 | DRSC00256 | 17684 | 20474 | 92333 | 80830 | inactive
CG15628 | DRSC00463 | 64949 | 65256 | 5.10e5 | 9.09e5 | inactive
CG42490 (retired record) | DRSC01649 | 6.82e5 | 5.97e5 | 1.59e6 | 1.79e6 | inactive
CG42490 (retired record) | DRSC28297 | 5.86e5 | 7.77e5 | 1.22e6 | 1.45e6 | inactive
Nil | DRSC15953 | 1.94e5 | 2.45e5 | 3.34e6 | 3.43e6 | inactive
Nil | DRSC23322 | 7.08e5 | 8.16e5 | 1.76e6 | 1.82e6 | inactive
Nil | DRSC37074 | – | – | – | – | inactive
COX7AL2 | DRSC38937 | 7.69e5 | 6.49e5 | 1.83e6 | 1.95e6 | inactive
sona | DRSC04089 | 3.03e5 | 3.19e5 | 1.55e6 | 1.32e6 | inactive
sona | DRSC04574 | 41295 | 67013 | 8.26e5 | 8.82e5 | inactive
sona | DRSC04575 | 1.65e5 | 2.90e5 | 1.52e6 | 1.79e6 | inactive

Entries listed so far with an active call (1):
predicted target | amplicon | firefly reporter light, replicate 1 | firefly reporter light, replicate 2 | Renilla control light, replicate 1 | Renilla control light, replicate 2 | Outcome
KCNQ | DRSC06121 | 1.88e5 | 1.06e5 | 1.64e6 | 1.05e6 | active
